Experimental data reported in PMC10442049.
Results are given in words; binding and its absence hold for the method and conditions named. In cells and extracts the contact can be indirect. A yes stands for co-enrichment or nearness to the bait. Other partners may have been found.

By UniProt entry, the sequences of proteins in these tests, tags left out.
UniProt F4JP43: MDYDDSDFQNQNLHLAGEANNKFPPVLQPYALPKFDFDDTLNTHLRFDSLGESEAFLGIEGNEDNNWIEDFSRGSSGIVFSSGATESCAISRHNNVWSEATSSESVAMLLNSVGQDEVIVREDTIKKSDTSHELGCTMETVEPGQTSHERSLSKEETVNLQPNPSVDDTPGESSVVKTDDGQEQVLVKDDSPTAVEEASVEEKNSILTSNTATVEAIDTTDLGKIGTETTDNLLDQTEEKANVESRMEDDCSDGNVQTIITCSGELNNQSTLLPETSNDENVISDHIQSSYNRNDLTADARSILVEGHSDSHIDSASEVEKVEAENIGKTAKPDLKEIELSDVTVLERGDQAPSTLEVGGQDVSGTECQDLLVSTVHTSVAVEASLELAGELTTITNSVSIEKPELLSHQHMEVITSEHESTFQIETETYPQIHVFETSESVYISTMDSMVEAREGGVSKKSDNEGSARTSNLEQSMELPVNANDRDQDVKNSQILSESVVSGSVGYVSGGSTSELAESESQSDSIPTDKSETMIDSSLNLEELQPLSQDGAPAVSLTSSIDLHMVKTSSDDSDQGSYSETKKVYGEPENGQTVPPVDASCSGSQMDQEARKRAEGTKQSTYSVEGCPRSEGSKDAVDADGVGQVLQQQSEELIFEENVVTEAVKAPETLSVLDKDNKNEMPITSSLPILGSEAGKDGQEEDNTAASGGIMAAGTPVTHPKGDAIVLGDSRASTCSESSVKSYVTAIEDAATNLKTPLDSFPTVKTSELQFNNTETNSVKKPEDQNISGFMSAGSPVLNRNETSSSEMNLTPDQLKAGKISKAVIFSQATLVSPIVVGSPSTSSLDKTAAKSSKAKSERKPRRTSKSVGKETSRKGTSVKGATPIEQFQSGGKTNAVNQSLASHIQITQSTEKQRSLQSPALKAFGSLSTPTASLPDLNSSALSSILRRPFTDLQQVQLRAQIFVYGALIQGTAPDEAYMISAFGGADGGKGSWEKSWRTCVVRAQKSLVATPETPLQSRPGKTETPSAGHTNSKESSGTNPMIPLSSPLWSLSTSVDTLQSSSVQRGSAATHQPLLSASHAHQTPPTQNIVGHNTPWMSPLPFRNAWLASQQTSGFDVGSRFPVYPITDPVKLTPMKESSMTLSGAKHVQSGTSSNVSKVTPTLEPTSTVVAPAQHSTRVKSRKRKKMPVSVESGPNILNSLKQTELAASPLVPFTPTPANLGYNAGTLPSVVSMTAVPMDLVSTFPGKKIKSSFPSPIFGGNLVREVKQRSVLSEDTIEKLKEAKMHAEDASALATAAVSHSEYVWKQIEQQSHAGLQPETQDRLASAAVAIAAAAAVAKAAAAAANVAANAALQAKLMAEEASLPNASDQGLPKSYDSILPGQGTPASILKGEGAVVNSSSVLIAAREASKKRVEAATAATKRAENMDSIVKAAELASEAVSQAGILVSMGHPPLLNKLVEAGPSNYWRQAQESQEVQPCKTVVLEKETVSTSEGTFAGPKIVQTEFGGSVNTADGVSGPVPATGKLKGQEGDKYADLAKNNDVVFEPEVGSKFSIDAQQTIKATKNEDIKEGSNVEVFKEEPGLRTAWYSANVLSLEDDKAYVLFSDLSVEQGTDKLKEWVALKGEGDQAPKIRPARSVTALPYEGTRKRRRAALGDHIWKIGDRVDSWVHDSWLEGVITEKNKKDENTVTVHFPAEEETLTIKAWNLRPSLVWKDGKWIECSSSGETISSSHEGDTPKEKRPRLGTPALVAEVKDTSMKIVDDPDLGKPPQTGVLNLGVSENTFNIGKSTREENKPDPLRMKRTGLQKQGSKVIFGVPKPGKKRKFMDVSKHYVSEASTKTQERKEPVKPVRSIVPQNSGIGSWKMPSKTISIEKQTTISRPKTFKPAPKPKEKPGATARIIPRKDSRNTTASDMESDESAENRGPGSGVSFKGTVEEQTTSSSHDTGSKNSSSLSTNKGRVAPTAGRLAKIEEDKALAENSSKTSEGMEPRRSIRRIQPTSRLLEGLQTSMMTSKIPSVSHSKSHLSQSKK

B1: LOS4, endogenous (protein, UniProt Q93ZG7 1-496)
chain: MADTVEKVPTVVESSSSSTVEASNSAEKTEPTTEKKKWGDVEDDDDEEEAVSELNSLSIKEEEKPDSILEEPEDSNIKAVTSGDTPYTSASRFEDLNLSPELMKGLYVEMKFEKPSKIQAISLPMIMTPPHKHLIAQAHNGSGKTTCFVLGMLSRVDPTLREPQALCICPTRELANQNMEVLQKMGKFTGITAELAVPDSTRGAPAATRGAPVSAHVVIGTPGTLKKWMAFKRLGLNHLKILVFDEADHMLATDGFRDDSLKIMKDIGRVNPNFQVLLFSATFNETVKDFVARTVKDPNQLFVKREDLALDSVKQYKVVCPKEQNKIEVIKDQIMELGDIGQTIIFVKTKASAQKVHKALAEMGYDVTSVHGNLTESDRDKIVKEFKECLTQVLIATDVIARGFDQQRVNLVVNYNLPTKYETGEPDYEVYLHRVGRAGRFGRKGAVFNLLLDDGWDKEVMEKIEKYFEANVKEIKSWNSEEEYKSALKEAGLLDE
B2: Nup96, endogenous (protein, UniProt Q8LLD0 1-1046)
chain: MTSLSIQPFPEISRMARDLDSRKKRRISLDGIAALCEHSKEIIDSLPMLNSPDYFLKPCINELVEREIESPDYCSRVPDFTIGRIGYGYIRFLGNTDVRRLDLDHIVKFHRHEVIVYDDESSKPVVGEGLNKAAEVTLVVNIPDLTWGKQQVNHIAYKLKQSTERQGATFISFDPDNGLWKFFVPHFSRFGLSDDEAEDIAMDDAPGLGDPVGLDGKKVADIDEEDQMETSELELSHSLPAHLGLDPEKMKEMRMLMFPNEDEDESEDFREQTSHLMTSLTKRNVRPSQKIAQRNSHQDPPPVVRKTPLALLEYNPGNDKSSPGSILMVQQNKNLAVRKSKTGGFELDISHVTPLTDNYSRNVVDAALFMGRSFRAGWGPNGVLFHTGKPICSSSSQMVLSSVINKEKIAIDKVVWDRKGKVQKELIDSAFEAPLSLHKELNHVEEEVRFGSFSLKLQNVVTDRVVLSDICRSYIGIIEKQLEVAGLSTSAKLFLMHQVMVWELIKVLFSERQSTERLMYAASDNEEDVMQDVKEDSAKIDTEALPLIRRAEFSCWLQESVSHRVQEDVSDLNGSSYLEHLFFLLTGRELDSAVELAISKGDVRLACLLSQAGGSTVNRNDILQQLHLWRRNGLDFNFIEKERIKLYELLAGNIHDALQDFTIDWKRFLGLLMWHHLPPDSSLPIIFRSYQLLLNQAKAPWPVPIYIDEGPADGFVSDNKHSDILYYLMLLHSKEEEEFGFLQTMFSAFSSTDDPLDYHMIWHHRGILEAVGAFTSDDLHTLDMGFVAQLLSQGLCHWAIYVVLHIPFREDHPYLHVTVIREILFQYCETWSSMESQRQFIKDLGIPSEWMHEALAVYYNYHGDFVKALDQFIECANWQRAHSIFMTSVAHSLFLSANHSEIWRIATSMDDRKSEIENWDLGAGIYMSFYLLKSSLQEDADTMVELEPLDSTNESCRNFVGRLNESLAVWGDRLPVEARVAYSKMAEEICDLLLSDLSKNPSRETQLTCFETAFDAPLPEDVRSTHLQDAVSLFSLYLSETGQISA
B3: RAE1, endogenous (protein, UniProt Q38942 1-349)
chain: MATFGAPATANSNPNKSYEVTPSPADSISSLSFSPRADILVATSWDNQVRCWEISRSGASLASAPKASISHDQPVLCSAWKDDGTTVFSGGCDKQAKMWPLLSGGQPVTVAMHEGPIAAMAWIPGMNLLATGSWDKTLKYWDTRQQNPVHTQQLPDKCYTLSVKHPLMVVGTADRNLIVFNLQNPQTEFKRIQSPLKYQTRCVTAFPDQQGFLVGSIEGRVGVHHLDDSQQSKNFTFKCHRDGNDIYSVNSLNFHPVHGTFATAGSDGAFNFWDKDSKQRLKAMSRCNQPIPCSSFNHDGSIYAYAACYDWSKGAENHNPATAKSSIFLHLPQESEVKAKPRVGATGRK
B4: Nup155, endogenous (protein, UniProt F4HXV6 1-1464)
chain: MSQDDEIVMRDVTSAGICIGDRIGREAASQLDLEEALEASRYASHPYSTHPREWPPLIEVGETWELPSVLIERYNTAGGEGTALCGIFPEIRRAWASVDNSLFLWRFDKRDGQCPEYSGEEQAICAVGLAKCRPGVFVEAIQYLLVLATPVELVLVGVCCTEGPDGRDPYAEISVQPLPDYTISSDGVTMTCVTCTNKGRIFMAGRDGHIYELLYTTGSGWNKRCRKVCLTAGVGSMISRWVVPNVFKFGAVDPVVEMVVDNERQILYARTEEMKLQAYVSGPNGEGPLKKVAEERNLLNQKDLSQGNRQSAVAGRSNKPSIVSISPLSMLESKWLHLVAALSDGRRMYLSTSSSGSGSTISFSGFNNHRQTPNCLKVVSTRPSPPLGVGVGLGFGAASVAGRTQNDDLSMKIETAYYSVGTLVLSDSSPPAMSSLLVVSRDSSVHSQAGSSSGPSSRSSRALREVVSSLPIEGRMLFVADVLPSPDTAATIQSLYSELEYCGVEVSGESYEKACGKLWARSDLSTQHILPRRKIVVFTTMGMMELVFNRPVDILRRLLESNSPRSLLEDFFTRFGVGEAAAMCLMLAARIINFEDLISNIVADKAAEAFEDPRIVGMPQFDGSSGLSNTRTATGGFSMGQVVQEAEPIFSGAHEGLCLCTSRLLFPLWELPVMSKKTSSDTMSEDGVVICRLSTSAMHVLESKIRSLEKFLRSRRNQRRGLYGCVAGLGDVTGSILYGTGSELGATERNMVRNLFGAYSNGGESANKRQRLPYSPAELAATEVRAMECIRQLLLRSAEALFLLQLLSQHHVARLVQELDANLKQALVQLTFHQLVCSEEGDQIATRLISAVMEYYTGSDGRGTVDDISPRLREGCPSYFKESDYKFYLAVERLERAALTSDAEEKENVAREAFSFLSKVPGSADLQTVCKRFEDLRFYEAVVCLPLQKAQALDPAGDAFNDQLDASIREHALAQRKQCYEIIANALRSLASPLASPTLDEASRSQYICQIVHLGVQSTDRAFREYLYKAMIELHLENELLEYGGPDLVPFLQNAGSHSESQVGAVSTGSSPLGHSGTQISSDQAKYFDLLAKYYVSKRQHVLAAHVFLRLAERRAISLGDSPTLERRRDDLSQAVLQAKNASNSDGLVGSAQGVSDSGLLDLLEGKLAVLQFQIKIRDKLEAIASNFESSVAMQDSDQNGQVLDGDSSDDTNLANAANEMAMEVSSELKSVTQLYNEYAVPFELWEICLEMLYFANYSGDADSSIIRETWARLIDQALSQGGIREACAVLKRVGSHIYPGDGVVLPLDVLCLHLERAALERSERIENVRDEDIAKALLAACKGAAEPVLNAYDRLLSNAAVVPSPNLRIRLLRSVLVVLREWAMSVLSDRMGSSPTRSSLILGGSFALENKAALNQGARDKIANAANRYMTEVRRLALPPNKTDGVYAGFKELDESLLSPFSF
B5: Nup54, endogenous (protein, UniProt Q8GYF7 1-377)
chain: MFGTPSSSPSFGTPSSTPAFGTSSPAFGTPSATPAFGTPSNPSFSSGGFGSSLFSSPFSSQQPQQQQQQQQQQQPSSLFQQQPSSNFGFQSPFNNTAQQQQQTPFPNAQLTTQMAPVAPIPYSLADRDVQAIIEAYKEDPTNPKYAFQHLLFSVTEPQYRVKPAAVSDIMWAEAMSKLEGMDSTERERLWPQLVQGFKDLSQRLKLQDEVLVSDRDRIKTTQSNVKMLQRHLQASTFPSIERLRQKEQSLQRRMLRVMRIIEGLEGKGFRLPLTKGEAELSEKLTAITRQVKGPGAELSRRVQSLQTISRAQANSIAAGSSLYLPGSTKIDEQSLIDMQEVLQQETEAIGRLGNVLKRDMRDMEIMVAEDTEMALDS
B6: Nup35, endogenous (protein, UniProt O04326 1-329)
chain: MSAAAHRTPKSGRQSLLFQDLASPVSARRGKFSSPGQAAAVSALWRENFGGSDLPPPPMYTLDDRSDFSPESGIADYSASPDAKSDRRTPFQSSGKNIVTPGKGKLEASPSFSLLNAQQSQQVSGSPSWWSQSKAGSSTEQDDKGKGSPVEGVVQPGALVTLPPPREVARPEVQRQIIPTGNLDEEEWVTVYGFSPGDTNLVLREFEKCGMVLKHVPGPRNANWMHILYQNRSDAHKALNKAGMMINGVVIVGVKPVDPIQKQALNERLNNQGFMPLPPPSSTRNTARPLSRPQYLQNGSAFSPQPSGGAMASPSKSMVSKFFDLMFGV
B7: LINC4, endogenous (protein, UniProt Q9FLH0 1-1010)
chain: MATSSRSERFPITPSTAATNRLTITPNSRVLKSPLTEEIMWKRLKDAGFDEQSIKNRDKAALIAYIAKLESEVYDYQHNMGLLLLEKNELSSQYEEIKASVDESDLTHMREKSAYVSALAEAKKREESLKKDVGIAKECISSLEKTLHEMRAECAETKVSAGSTMSEAHVMIEDALKKLADAEAKMRAAEALQAEANRYHRIAERKLKEVESREDDLTRRLASFKSECETKENEMVIERQTLNERRKSLQQEHERLLDAQVSLNQREDHIFARSQELAELEKGLDTAKTTFEEERKAFEDKKSNLEIALALCAKREEAVSERESSLLKKEQELLVAEEKIASKESELIQNVLANQEVILRKRKSDVEAELECKSKSVEVEIESKRRAWELREVDIKQREDLVGEKEHDLEVQSRALAEKEKDITEKSFNLDEKEKNLVATEEDINRKTTMLEDEKERLRKLDLELQQSLTSLEDKRKRVDSATQKLEALKSETSELSTLEMKLKEELDDLRAQKLEMLAEADRLKVEKAKFEAEWEHIDVKREELRKEAEYITRQREAFSMYLKDERDNIKEERDALRNQHKNDVESLNREREEFMNKMVEEHSEWLSKIQRERADFLLGIEMQKRELEYCIENKREELENSSRDREKAFEQEKKLEEERIQSLKEMAEKELEHVQVELKRLDAERLEIKLDRERREREWAELKDSVEELKVQREKLETQRHMLRAERDEIRHEIEELKKLENLKVALDDMSMAKMQLSNLERSWEKVSALKQKVVSRDDELDLQNGVSTVSNSEDGYNSSMERQNGLTPSSATPFSWIKRCTNLIFKTSPEKSTLMHHYEEEGGVPSEKLKLESSRREEKAYTEGLSIAVERLEAGRKRRGNTSGDETSEPSNNKKRKHDVTQKYSDEADTQSVISSPQNVPEDKHELPSSQTQTPSGMVVISETVKITRVTCETEVTNKVTTLDCSESPSEAGRKMGEETEDGDCNQTGINASETVIHNEAATEDICT
B8: SUN1, endogenous (protein, UniProt Q9FF75 1-471)
chain: MSASTVSITANTAAATRRTPILAGEKKSNFDYPQSESLANGGVGEAGGTSRDLSRGEATLDRSQGQDLGPVTRRSVSAATGTNTTATQRRTRKVATPKSEKARWKTVVRIFAKQLGALLIIVGLIQLTRKMILKASSPSSPISSYETEMAFSGLESRIAEVDGLVKATTNSMQVQVELLDKKMEREAKVLRQEIERKASAFQSELKKIESRTESLEKSVDEVNAKPWVTKDELERIYEELKKGNVDDSAFSEISIDELRAYARDIMEKEIEKHAADGLGRVDYALASGGAFVMEHSDPYLVGKGSSWFATTMRRAHTNAVKMLSPSFGEPGQCFPLKGSEGYVQIRLRGPIIPEAFTLEHVAKSVAYDRSSAPKDCRVSGSLQGPESSAETENMQLLTEFTYDLDRSNAQTFNILESSSSGLIDTVRLDFTSNHGSDSHTCIYRFRVHGRAPDPVPVVGTNLDQDSSPESE

Each binder was assayed against SWO1g-Myc (SWOLLEN 1 with 3xMyc, from SWO1pro:SWO1g-Myc) (Arabidopsis thaliana) (UniProt F4JP43) (assay: affinity purification with mass spectrometry; SWO1g-Myc as bait from transgenic Arabidopsis seedlings; anti-Myc agarose beads, 4 °C, 2 h; lysis buffer 50 mM Tris pH 7.6, 150 mM NaCl, 5 mM MgCl2, 10% glycerol, 0.1% NP-40, 0.5 mM DTT; four independent experiments).

Binder	binding
B1	binds
B2	binds
B3	binds
B4	binds
B5	binds
B6	binds
B7	binds
B8	binds
